Reference: patent publication US5695963

Chains of the proteins cited; added tags and fusions are not shown. A line that says so, or that is headed by a name, gives the form on record, which may keep a tag or linker.
EPAS1/ARNT heterodimer (Homo sapiens (EPAS1) / Mus musculus (ARNT)), one chain, as listed by the source, chain 2 of 2: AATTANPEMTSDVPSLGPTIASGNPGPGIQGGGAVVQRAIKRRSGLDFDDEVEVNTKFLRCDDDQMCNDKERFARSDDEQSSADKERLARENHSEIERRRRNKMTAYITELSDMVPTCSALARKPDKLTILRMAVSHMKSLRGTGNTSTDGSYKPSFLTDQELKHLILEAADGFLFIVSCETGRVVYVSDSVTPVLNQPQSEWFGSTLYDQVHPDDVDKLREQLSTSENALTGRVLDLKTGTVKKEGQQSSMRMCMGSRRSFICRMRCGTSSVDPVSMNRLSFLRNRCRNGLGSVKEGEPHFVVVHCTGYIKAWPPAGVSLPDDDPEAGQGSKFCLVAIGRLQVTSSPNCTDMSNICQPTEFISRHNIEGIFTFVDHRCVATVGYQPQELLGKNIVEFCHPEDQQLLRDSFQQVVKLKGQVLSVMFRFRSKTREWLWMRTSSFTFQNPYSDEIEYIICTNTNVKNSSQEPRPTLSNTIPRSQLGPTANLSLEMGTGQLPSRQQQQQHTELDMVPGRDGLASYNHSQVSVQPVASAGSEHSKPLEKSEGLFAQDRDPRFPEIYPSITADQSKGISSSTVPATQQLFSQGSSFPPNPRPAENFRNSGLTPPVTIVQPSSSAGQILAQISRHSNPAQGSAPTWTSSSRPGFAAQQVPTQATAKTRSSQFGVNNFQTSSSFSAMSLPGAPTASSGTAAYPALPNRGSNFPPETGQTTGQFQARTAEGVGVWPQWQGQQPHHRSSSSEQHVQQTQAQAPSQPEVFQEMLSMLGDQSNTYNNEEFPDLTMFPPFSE
EPAS1/ARNT heterodimer (Homo sapiens (EPAS1) / Mus musculus (ARNT)), one chain, as listed by the source, chain 1 of 2: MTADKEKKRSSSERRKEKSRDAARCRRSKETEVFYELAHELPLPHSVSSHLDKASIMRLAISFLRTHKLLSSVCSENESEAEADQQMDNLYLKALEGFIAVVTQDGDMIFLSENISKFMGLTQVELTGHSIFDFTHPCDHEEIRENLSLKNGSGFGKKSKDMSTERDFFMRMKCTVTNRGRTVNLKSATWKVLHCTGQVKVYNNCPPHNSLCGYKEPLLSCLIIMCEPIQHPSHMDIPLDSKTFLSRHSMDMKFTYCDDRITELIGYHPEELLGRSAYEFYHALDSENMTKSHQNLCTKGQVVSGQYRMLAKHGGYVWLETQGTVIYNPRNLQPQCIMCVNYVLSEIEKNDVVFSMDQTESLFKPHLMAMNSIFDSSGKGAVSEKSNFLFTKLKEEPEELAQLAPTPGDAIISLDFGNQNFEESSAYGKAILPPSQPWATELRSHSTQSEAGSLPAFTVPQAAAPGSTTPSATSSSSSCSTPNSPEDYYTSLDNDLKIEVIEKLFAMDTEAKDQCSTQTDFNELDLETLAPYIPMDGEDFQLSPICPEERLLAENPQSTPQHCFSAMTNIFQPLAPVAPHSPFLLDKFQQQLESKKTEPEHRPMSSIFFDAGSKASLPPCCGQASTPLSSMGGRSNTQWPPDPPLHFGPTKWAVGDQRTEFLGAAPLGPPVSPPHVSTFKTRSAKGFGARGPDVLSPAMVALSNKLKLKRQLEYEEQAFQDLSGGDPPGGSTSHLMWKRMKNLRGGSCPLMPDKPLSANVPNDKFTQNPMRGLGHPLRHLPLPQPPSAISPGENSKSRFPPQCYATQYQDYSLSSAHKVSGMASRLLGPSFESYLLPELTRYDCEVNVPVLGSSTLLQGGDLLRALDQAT

System: EPAS1/ARNT heterodimer (Homo sapiens (EPAS1) / Mus musculus (ARNT))
Assay: EMSA
Settings: complex only with both EPAS1 and ARNT; supershifted by anti-EPAS1; 4 C; protein translated in vitro

“GCCCTACGTGCTGTCTCA (double strand) [HIF-1alpha response element, erythropoietin 3' flank]”: binds.

The exact form of at least one protein or probe is not confirmed.
